Results deposited as PubChem BioAssay AID1508588 (Peter MacCallum Cancer Centre, 2020).
Shown is one part, drawn at random, of about 18,000 reagents. 790 of all reagents (4.4%) were called active. 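Calls rest on a combination of fold-change classes in drug and vehicle arms, not all shown here.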 Unmarked entries are inactive.

- Test: 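Knock-downs boosting vemurafenib effects on melanoma cell growth or lactate release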 (primary screen)
- System: human WM266.4 melanoma cells (BRAF V600 mutant)
- Reagents: siRNA pool against human genes, 40 nM
- Timing: 96 h from transfection to read-out
- Conditions: vemurafenib 300 nM (about IC25), added 48 h after transfection, for 48 h; comparison arm got DMSO vehicle only
- Measured: 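Ratios to non-targeting siRNA for cell gain, counted as DAPI nuclei after minus before drug and averaged over two replicates, and for absorbance-read medium lactate per cell; both binned into fold-change classes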
- Direction: cell gain with vemurafenib: higher = more cell gain than with non-targeting siRNA; lactate per cell with vemurafenib: higher = more lactate made per cell
- Active means: 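Enhancement is called by pairing each knock-down's vehicle-arm and drug-arm fold-change classes for viability or glycolysis; which class combinations qualify is not given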
- Calls: active = enhances vemurafenib effect; inactive = no enhancement seen

no.	gene	cell gain with vemurafenib	lactate per cell with vemurafenib
1	H4C14 (H4 clustered histone 14)	0.79	0.67
2	UQCC4 (ubiquinol-cytochrome c reductase complex assembly factor 4)	0.91	0.66
3	OCIAD1 (OCIA domain containing 1)	1.07	0.64
4	SGIP1 (SH3GL interacting endocytic adaptor 1)	1.12	0.42
5	C1orf141 (chromosome 1 open reading frame 141)	0.73	0.66
6	TMEM97 (transmembrane protein 97)	0.59	1.15
7	ADAMTS7 (ADAM metallopeptidase with thrombospondin type 1 motif 7)	0.49	1.13
8	DAP3 (death associated protein 3)	0.47	0.98
9	GTF2H2 (general transcription factor IIH subunit 2)	0.71	1.02
10	BBS4 (Bardet-Biedl syndrome 4)	0.97	0.94
11	SLC38A8	0.32	0.99
12	DDX25 (DEAD-box helicase 25)	0.57	1.13
13	ANKRD49 (ankyrin repeat domain 49)	0.17	1.97
14	CLMP (CXADR like cell adhesion molecule)	0.74	1.07
15	BCL7A (BAF chromatin remodeling complex subunit BCL7A)	0.83	0.94
16	KLK14 (kallikrein related peptidase 14)	0.83 (active)	0.45

Active calls, of those listed so far:
gene	cell gain with vemurafenib	lactate per cell with vemurafenib
KLK14 (kallikrein related peptidase 14)	0.83 (active)	0.45

The listing continues:
no.	gene	cell gain with vemurafenib	lactate per cell with vemurafenib
17	GUF1 (GTP binding elongation factor GUF1)	0.55	0.87
18	BRCA1 (BRCA1 DNA repair associated)	0.98	1.08
19	NR3C1 (nuclear receptor subfamily 3 group C member 1)	1.01	0.72
20	C17orf58 (chromosome 17 open reading frame 58)	0.64	0.4
21	TIMCC (TIM double twin CX3C motif chaperone)	0.64	0.34
22	RBMY1D (RNA binding motif protein Y-linked family 1 member D)	1.28	0.6
23	MIER2 (MIER family member 2)	0.46	1.42
24	SMN1 (survival of motor neuron 1, telomeric)	0.68	0.92
25	CIMAP1C (ciliary microtubule associated protein 1C)	0.49	1.33
26	PLCG1 (phospholipase C gamma 1)	0.61	0.88
27	CARD18 (caspase recruitment domain family member 18)	0.95	0.9
28	AKR1C6P (aldo-keto reductase family 1 member C6, pseudogene)	0.55	0.9
29	TMEM18 (transmembrane protein 18)	1.22	0.76
30	TDG (thymine DNA glycosylase)	0.73	0.87
31	PGM2 (phosphoglucomutase 2)	0.61	0.84
32	PRDM7 (PR/SET domain 7)	0.95	0.38
33	FNDC11 (fibronectin type III domain containing 11)	0.29	1.66
34	RYR1 (ryanodine receptor 1)	0.54	0.84
